Experimental data as given in article PMC13324451 (The Journal of Biological Chemistry, 2026).
Results are given in words; binding and its absence hold for the method and conditions named. Binding seen in cells or lysates may run through a third protein. These calls come from enrichment with a bait or labelling near it, and not all partners need be listed. Where a sequence is shown, tags or fusion partners need not be part of it.

Chains of the proteins cited; added tags and fusions are not shown.
UniProt Q7NY44: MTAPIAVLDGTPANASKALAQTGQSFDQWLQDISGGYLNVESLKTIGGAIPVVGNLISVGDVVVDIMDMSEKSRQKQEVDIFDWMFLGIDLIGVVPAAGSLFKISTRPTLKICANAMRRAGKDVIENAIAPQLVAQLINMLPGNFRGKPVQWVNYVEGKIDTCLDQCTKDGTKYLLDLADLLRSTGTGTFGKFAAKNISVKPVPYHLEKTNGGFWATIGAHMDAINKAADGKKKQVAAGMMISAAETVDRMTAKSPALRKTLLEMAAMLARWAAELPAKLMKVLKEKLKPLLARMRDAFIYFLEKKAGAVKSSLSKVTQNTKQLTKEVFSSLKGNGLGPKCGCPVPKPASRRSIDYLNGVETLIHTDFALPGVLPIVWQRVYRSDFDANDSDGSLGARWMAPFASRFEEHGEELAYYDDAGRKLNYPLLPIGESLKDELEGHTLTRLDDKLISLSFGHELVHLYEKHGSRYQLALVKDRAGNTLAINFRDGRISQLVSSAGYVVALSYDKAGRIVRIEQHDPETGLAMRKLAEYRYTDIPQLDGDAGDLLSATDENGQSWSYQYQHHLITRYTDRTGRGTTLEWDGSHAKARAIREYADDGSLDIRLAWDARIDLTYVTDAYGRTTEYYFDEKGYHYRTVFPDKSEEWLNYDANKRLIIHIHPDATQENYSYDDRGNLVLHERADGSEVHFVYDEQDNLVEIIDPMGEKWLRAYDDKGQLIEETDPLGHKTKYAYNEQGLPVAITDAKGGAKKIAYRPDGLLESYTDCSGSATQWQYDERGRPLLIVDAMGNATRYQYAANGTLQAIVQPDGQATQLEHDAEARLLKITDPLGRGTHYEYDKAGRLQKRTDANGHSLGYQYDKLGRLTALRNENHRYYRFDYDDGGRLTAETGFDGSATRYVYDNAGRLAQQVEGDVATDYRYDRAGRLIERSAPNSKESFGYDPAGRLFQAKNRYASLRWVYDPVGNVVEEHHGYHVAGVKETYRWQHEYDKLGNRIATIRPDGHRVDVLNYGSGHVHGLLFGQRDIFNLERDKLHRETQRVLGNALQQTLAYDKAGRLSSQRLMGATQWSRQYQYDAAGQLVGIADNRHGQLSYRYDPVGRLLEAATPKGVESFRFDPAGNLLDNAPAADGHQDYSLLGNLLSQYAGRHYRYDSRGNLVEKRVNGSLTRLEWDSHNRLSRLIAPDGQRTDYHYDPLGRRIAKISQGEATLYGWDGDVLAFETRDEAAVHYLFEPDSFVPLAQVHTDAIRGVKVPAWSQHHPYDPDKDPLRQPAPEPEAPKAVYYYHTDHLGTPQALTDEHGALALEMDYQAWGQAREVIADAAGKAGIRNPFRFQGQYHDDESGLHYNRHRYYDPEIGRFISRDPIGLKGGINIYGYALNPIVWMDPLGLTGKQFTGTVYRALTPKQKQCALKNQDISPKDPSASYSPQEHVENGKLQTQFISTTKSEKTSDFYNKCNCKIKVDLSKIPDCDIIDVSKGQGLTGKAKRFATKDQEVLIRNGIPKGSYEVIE

T1: VgrG3 with a C-terminal haemagglutinin epitope tag (VgrG3-HA) (Chromobacterium violaceum ATCC 12472) (UniProt Q7NY43)
T1 sequence: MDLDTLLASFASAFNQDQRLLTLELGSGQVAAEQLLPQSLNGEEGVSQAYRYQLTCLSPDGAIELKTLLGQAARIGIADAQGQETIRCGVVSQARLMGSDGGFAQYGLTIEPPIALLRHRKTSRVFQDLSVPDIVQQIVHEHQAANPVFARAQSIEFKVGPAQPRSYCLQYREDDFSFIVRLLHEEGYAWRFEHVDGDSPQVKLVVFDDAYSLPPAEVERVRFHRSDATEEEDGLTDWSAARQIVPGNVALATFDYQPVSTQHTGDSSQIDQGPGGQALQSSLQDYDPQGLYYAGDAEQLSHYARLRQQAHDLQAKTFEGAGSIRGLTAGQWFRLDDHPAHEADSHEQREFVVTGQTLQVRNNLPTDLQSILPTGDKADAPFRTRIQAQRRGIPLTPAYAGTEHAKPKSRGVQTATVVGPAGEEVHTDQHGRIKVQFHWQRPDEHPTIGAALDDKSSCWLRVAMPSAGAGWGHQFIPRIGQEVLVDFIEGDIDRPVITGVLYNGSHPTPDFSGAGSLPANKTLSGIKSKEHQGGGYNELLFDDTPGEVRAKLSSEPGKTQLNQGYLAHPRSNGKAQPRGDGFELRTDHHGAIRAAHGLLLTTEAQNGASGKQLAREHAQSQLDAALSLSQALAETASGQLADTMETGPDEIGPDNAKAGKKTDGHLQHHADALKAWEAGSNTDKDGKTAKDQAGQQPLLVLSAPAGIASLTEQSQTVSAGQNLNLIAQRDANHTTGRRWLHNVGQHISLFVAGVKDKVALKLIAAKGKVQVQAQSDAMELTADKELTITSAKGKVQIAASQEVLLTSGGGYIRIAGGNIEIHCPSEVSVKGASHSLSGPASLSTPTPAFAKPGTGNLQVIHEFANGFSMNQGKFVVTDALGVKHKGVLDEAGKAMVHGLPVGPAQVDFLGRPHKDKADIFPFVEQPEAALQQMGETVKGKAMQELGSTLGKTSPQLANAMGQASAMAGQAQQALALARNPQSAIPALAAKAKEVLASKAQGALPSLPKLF

B1: Tle1 phospholipase (CV_3971) (protein, UniProt Q7NR14 1-691)
chain: MSKVSLAPAFPERGHWPSDLNEVIKQRYAQQREIAAHCVDARGEGKPADCALVMNVSLFFDGTNNHGDSDDAADPVCSTNIRRLYHATVGKDDAQSSGYFSYYIQGVGTCFPEIGEKKPLDSGLRYASGGDARIQWGITRLIRALHLATPLEPPSEEDMAKLVEGLQYQYEKREKGPTVKYETTPDERRALVKKALKDVLAEQEKPDHKPKILKIKLFVYGFSRGAAEARAFLWRLGELIEDGALASFPIEVKFVGLLDTVASVGLTELAPGAQGHQGWADGTMKLPPWLPADCCVHLVSAHEQRLCFPLDSVGTDAVGAYPASVKGEWVYPGMHSDVGGGYPPQDQGKALDGQPLLLSQVALLHLYSLAFAAGAPLKINADRLMNANPQQLAMLKAKEPWRFMLDDVQKLFAIDDVLIRRFNAWQNFSTKHLPASRKEEGPMEAIMRAQAAQINAWRIERFSGGLQGKGGQDQSHSNFYQYASKERQTPEWRVKEEKRIWDKQSGKGKPAAPEPLLDEDKKPRLDENGNPIEWKPNLNKAYEPTLDKVQLDLGATDFTNDYLDRASLANKGNLVGILTSILTSPSRLFSADKIMDEFPLLKRDSEALHADVVADKELMALYDDHVHDSRAWFMQSSLDKLEPGGTYWRYRTIFFTDDINNKQQLDKLPEVKAERERREREKEMKRMYSGG
B2: VgrG6 (protein, UniProt Q7P245 1-879)
chain: MDLNSLLSSFASAFNQEQRLLTLELGTGQIAAEQLLPLSLDGEEGVSRAYRYTVTCLSPDGHIELKTLLGQPARIGIQDADGDETIRCGMVSQARLAGADGGFARYELTIEPPFALLRHRKTSRVFQDLSVPDIVKQILAEHQAANPAFARAQTLDIQVRPAPPRSYTLQYRESDFDFIVRLLHEEGYAWRFVHLDEVTERGSEASRGNSPQVELAVFDDAHSLPAAKLERVRFHRSDATEEEDGLTEWQAAHQIVPGGTTLVSYDYKPVYSQQNRDDSHIDQGQTGQALQSSLTQYDAPGLYYAGDEEQLGRYAQLRQQANDLQAKSFSGSGSVRGLLPGDWFRLDDHPAHDGDAAENREFVVTGQSFQVRNNLPQDLAQHIGTESDATPFATSIQAQRRGIPLTPAYAGTELAKPTSLGVQTATVVGPAGEEVHTDQHGRIKVQFHWQRPDEHPTIGASLDDKSSCWLRVAMPSAGAGWGHQFIPRIGQEVLVDFIEGDIDRPVITGVLYNGSHPTPDFSGAGSLPANKTLSGIKSKEHQGGGYNELLFDDTPGEVRAKLSSEPGKTQLNQGYLAHPRSNGKAQPRGDGFELRTDHHGAIRAAHGLLLTTEVQNGASGKQLAREHAQSQLDAALSLSQALAETASGQLADTMETGPEEIGPDNAKAGKKSDGHLQHHADALKAWEAGSNTDKDGKTAKDQAGQQPLLVLSAPAGIAALTEQSHTVSAGQNLNLVAQRDANHTTGRRWIHNVGQHISLFVAGVKDKVALKLIAAKGKVQAQSDAMELTADKDVAITSVKQKVQFNGKQEILLTSGGAYVRIKDGKIELHAPGTVSFKGASHDWSGPASTNLPFPTLPQGDTPSCQLAAIQHKSGMTKK
B3: VgrG1 (protein, UniProt Q7NQZ9 1-872)
chain: MDLTSLLSSFASAFTQDQRLLTLELGSGQVAAEQLLPQSLNGEEGVSQAYRYQLTCLSPDGAIELKTLLGQAARIGIADAQGQETIRCGVVSQARLMGSDGGFAQYGLTIEPPIALLRHRKTSRVFQDLSVPDIVQQIVHEHQAANPVFARAQSIEFKVGPAQPRSYCLQYREDDFSFIVRLLHEEGYAWRFEHVDGDSPQVKLVVFDDAYSLPPAEVERVRFHRSDATEEEDGLTDWSAARQIVPGNVALATFDYQPVSTQHTGDSSQIDQGPGGQALQSSLQDYDPQGLYYAGDAEQLSHYARLRQQAHDLQAKTFEGAGSIRGLTAGQWFRLDDHPAHEADSHEQREFVVTGQTLQVRNNLPTDLQSILPTGDKADAPFRTRIQAQRRGIPLTPAYAGTEHAKPKSRGVQTATVVGPAGEEVHTDQHGRIKVQFHWQRPDEHPTIGAALDDKSSCWLRVAMPSAGAGWGHQFIPRIGQEVLVDFIEGDIDRPVITGVLYNGSHPTPDFSGAGSLPANKTLSGIKSKEHQGGGYNELLFDDTPGEVRAKLSSEPGKTQLNQGYLAHPRSNGKAQPRGDGFELRTDHHGAIRAAHGLLLTTEAQNGASGKQLAREHAQSQLDAALSLSQALAETASGQLADTMETGPDEIGPDNAKAGKKTDGHLQHHADALKAWEAGSNTDKDGKTAKDQAGQQPLLVLSAPAGIASLTEQSQTVSAGQNLNLIAQRDANHTTGRRWLHNVGQHISLFVAGVKDKVALKLIAAKGKVQVQAQSDAMELTADKDVTIMSCKERIVVNAKDEILLTAGGAYIRLKGGNIEVHAPGTVSVKAAQHKLSGPDNMTIPMPVFPGKQFCLQCMLNAIKSGSPLAGQ
B4: VgrG5 (protein, UniProt Q7P238 1-874)
chain: MDLNALLSSFASAFGQDHRPLTLELGSGQIAAEQLLPLSLDGEEGLSRAYRYTVTCLSPDGHIELKTLLGQPARIGIQDADGDETIRCGVVSQARLAGADGGFARYELTIEPPFALLRHRKTSRVFQDLSVPDIVKQILAEHQAANPAFARTQTLDIQVKPAPPRSYTLQYRESDFDFIVRLLHEEGYAWRFVHLDEVTERGSEASRGNSPQVELAVFDDALSLPAAKLERVRFHRSDATEEEDGLTEWQAARQIVPGGTALASYDYKPVYSQQNRDDSHIDQGQTGQALQSSLTQYDAPGLYYADDEEQLGRYAQLRQQANDLQAKSFSGSGSVRGLLPGDWFRLDDHPAHDGDAAENREFVVTGQSFQVRNNLPQDLAQHIGTESDATPFATSIQAQRRGIPLTPAYAGTEHAKPKSRGVQTATVVGPAGEEVHTDQHGRIKVQFHWQRPDEHPTIGAALDDKSSCWLRVAMPSAGAGWGHQFIPRIGQEVLVDFIEGDIDRPVITGVLYNGSHPTPDFSGAGALPANKTLSGIKSKEHQGGGYNELLFDDTPGEVRAKLSSEPGKTQLNQGYLAHPRSNGKAQPRGDGFELRTDHHGAIRAAHGLLLTTEAQNGASGKQLAREHAQSQLDAALSLSQALAETASGQLADAMETGPDEIGPDNAKAGKKTDGHLQHHADALKAWEAGSNTDKDGKTAKDQAGQQPLLVLSAPAGIAALTEQSHTVSAGQNLNLVAQRDANHTTGRRWLHNVGQHISLFVAGVKDKVALKLIAAKGKVQVQAQSDAMELTADKDVTITSCKERIVVNAKQEILVTAGGGYIRIAGGNIEVHCPGTVSVKGASHDLSGPASMNPPLPTLPKDKYTPPNTHPFSE
B5: VgrG2 (protein, UniProt Q7NR10 1-872)
chain: MDLSSLLASFASAFNQDQRLLTLELGSGQVAAEQLLPQSLNGEEGVSQAYRYQLTCLSPDGAIELKTLLGQAARIGIADAQGQETIRCGVVSQARLMGSDGGFAQYGLTIEPPIALLRHRRTSRVFQDLSVPDIVQQIVHEHQAANPVFARAQTVEFKVGPAQPRSYCLQYREDDFSFIVRLLHEEGYAWRFEHVDGDAPQVKLAVFDDAYSLPPAEVERVRFHRSDATEEEDGLTDWSAARQIVPGNVALATFDYQPVSTQHTGDSSQIDQGPGGQALQSSLQDYDPQGLYYAGDAEQLSHYARLRQQAHDLQAKSFEGAGSIRGLTAGQWFRLDDHPAHEADSHEQREFVVTGQTLQVRNNLPTDLQSILPTDDQTDAPFTTRIQAQRHGIPLTPAYAGTEHAKPKSRGVQTATVVGPAGEEVHTDQHGRIKVQFHWQRPDEHPTIGAALDDKSSCWLRVAMPSAGAGWGHQFIPRIGQEVLVDFIEGDIDRPVITGVLYNGSHPTPDFSGAGSLPANKTLSGIKSKEHQGGGYNELLFDDTPGEVRAKLSSEPGKTQLNQGYLAHPRSNGKALPRGDGFELRTDHHGAIRAAHGLLLTTEAQNGASGKQLAREHAQSQLDAALSLSQALAETASGQLADAMETGPDEIGPDNAKAGKKTDGHLQHHVDALKAWEAGSNTDKDGKTAKDQAGQQPLLVLSAPAGIAALTEQSQTVSAGQNLNLVAQRDANHTTGRRWIHNVGQHISLFVAGVKDKVALKLIAAKGKVQVQAQSDAMELTADKDVTITSAKQTIHVNAKQEILLTSGGAYIRLKDGKIELHAPGTISIKGASHNFSGPDQMNPPLPRFPNTVCKQCMAQAFSQANPLVAAK
B6: Tle1 phospholipase (CV_3990) (protein, UniProt Q7NQZ5 1-523)
chain: MSCVSGKQEAQCQSQIHVMMFFDGTGNNIQADYYQAASGKQRPSNVARLFMTARDKPNEGYFRFYMPGVGTPFPEIDDTGGALGGGAGAGGEARILWALTRLVNAPHQYVNKSPLIADGLAKKITSNAGGLTGGVMRKVIFNTWQEKLQQALKGRKPQITQINLSVFGFSRGATEARAFVNWLYQICHQQNGAWSFAGISLRTQFLGIMDTVASVGLAQLLPNTIPATGHMAWADNNLTIHPAVEQCVHYVAGHEVRACFPLDTVRRGNSYPANTIEVMFPGSHSDVGGGYASGDLGILPAQNGQLCAIPGRRLYDAARQAGVPLLAMDQLTERVQNLLTPTQEVINDFNAYLREAKIAPGSTEKMHRQHMALYLSQRFKYRHDFAKRAPYRTASAKHQGFLQITQASLIKGLRKLYAGDPMAPDFDPARAAAKAAKQEQELQKLMPMLPEQGMSIPSEVLPETDPKKVAATMNIRLLTPAIENFLEKYIHDSMAGFIGDGVNEAKINQIGLLKFRTLYAGNE

What follows are molecules tested against T1, VgrG3 with a C-terminal haemagglutinin epitope tag (VgrG3-HA) (Chromobacterium violaceum ATCC 12472) (assay: affinity purification with mass spectrometry; VgrG3-HA precipitated with HA-tag rabbit mAb magnetic beads from the soluble fraction of C. violaceum vgrG3-HA cells (untagged wild type as control); 16 h at 4 °C; 20 mM Tris-Cl pH 7.5, 150 mM NaCl, 0.5 mM EDTA, 0.1% Triton X-100; label-free quantitative MS, biological triplicates).
In the case of “RhsF (Rhs family protein containing a FIX domain) (from UniProt Q7NY44 1-1513)”, the binding is reported as “binds”.
With B1 the binding was “binds”.
With B2 the binding was “binds”.
For B3, the binding was “binds”.
For B4, the binding was “binds”.
For B5, the binding was “binds”.
B6 was tested, and the binding was “binds”.
